Results on 44 compounds are retold here after article PMC12548414.

About 20 (1%) of roughly 1,600 compounds showed an effect of 50% or more. The list shows a part of the results.

The subject of the assay is T1, E. coli pLC1021 (luc-trpAt trans-translation reporter).
T1 construct: pLC1021 luc-trpAt reporter strain
Set-up: species or system Escherichia coli pLC1021; luc-trpAt non-stop luciferase reporter; luminescence rises when trans-translation is inhibited; normalized to KKL-35 and DMSO. The note with it: reporter signal, KKL-35 = 100%; rise means trans-translation inhibition; 2 h, 20 µM. The gist of the method: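 Cells carrying the non-stop luc-trpAt reporter were exposed to 20 µM compound for 2 h at room temperature, then Bright-Glo was added and luminescence read at 560 nm after 10 min. Signals were normalised per plate to DMSO and 20 µM KKL-35 wells. Hits: activity one SD above the median; ≥2 biological repeats averaged.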
On to `O=C(Nc1ccc(N2CCN(Cc3ccccc3F)CC2)cc1)c1ccc([N+](=O)[O-])o1` [KKL-1302], for which the “% activation” value was found to be 0%.
For the compound `O=C(Oc1ccccc1)c1ccc(COC(=O)c2ccco2)cc1` [KKL-1585], the “% activation” value is given as 0%.
Then `CSc1ncc(CNC2CCCc3c2cnn3-c2ccc(C(C)(C)C)cc2)cn1` (centres unmarked) [KKL-0317], with 0%; and `Cc1[nH]c2ccccc2c1/C=C1\SC(=N)N(c2nccs2)C1=O` [KKL-1143], with 6%.
As for `O=C1/C(=C/c2ccccc2[N+](=O)[O-])COc2ccccc21` [KKL-0830], the “% activation” value is reported as 0%.
Then `COc1cc([N+](=O)[O-])ccc1NC(=O)c1cc(Cl)ccc1O` [KKL-1442], with 0%; and `CCN1C(=O)c2cccc3cc([N+](=O)[O-])cc(c23)C1=O` [KKL-1374], with 0%.
Then `[O-][n+]1onc2c3cc(-c4ccccc4)nnc3ccc21` [KKL-0875], with 8%.
Then `CC(C)Oc1ccc(-c2nnc(-c3ccc4c(c3)CCNCC4)s2)cc1Cl` [KKL-1840], with 4%.
Regarding `COc1ccc2c(c1)CCCN2Cc1ccnc(N2CCCC2)n1` [KKL-0504], the “% activation” value was 4%.
Take `O=C(O)CCc1nc2ccccc2oc1=O` [KKL-1782]: the “% activation” value was 0%.
The result for `CSc1ncc(C(=O)Nc2ccc(Oc3ccc4c(c3)OCO4)cc2)cn1` [KKL-0931] reads 7%; that for `O=C(CSc1nnc(-c2ccccc2Br)o1)N1CCc2ccccc2C1` [KKL-0388], 0%.
With `CSCCC(=O)N1CCC(C(=O)Nc2ccc(-c3cccc(C)c3)cc2)CC1` [KKL-1148], the “% activation” value is recorded as 1%.
The result for `CN(C)CCCNc1cc(C(C)(C)C)nc2c(-c3ccc(Cl)cc3)cnn12` [KKL-0993] reads 17%; that for `Cc1ccc(C(=O)/C=C/c2ccccc2[N+](=O)[O-])cc1` [KKL-0973], 0%.
Turning to `O=C(Oc1cccc2cccnc12)c1ccccc1` [KKL-0450], the “% activation” value is 3%.
The result for `Cc1ccc2[nH]c(NCc3ccccc3)nc2c1` [KKL-1091] reads 0%; that for `CC1CCc2onc(C(=O)NC3CCCc4c3cnn4Cc3ccccc3Cl)c2C1` (centres unmarked) [KKL-0348], 0%.
For the compound `Cc1nn(-c2ccccc2)c(O)c1N=Nc1nccs1` [KKL-0953], the “% activation” value was found to be 27%.
Then `CCCc1cc(C(C)=O)ccc1OCCCON1C(=N)N=C(N)NC1(C)C` [KKL-1788], with 0%; and `Cc1cc(NCCCn2ccnc2)n2nc(C)c(-c3ccc(Cl)cc3)c2n1` [KKL-0992], with 4%; and `COc1ccc(N2CCN(c3nc(NC(C)(C)C)nc(N4CCCCC4)n3)CC2)cc1` [KKL-1088], with 1%.
Then `CC1CCc2c(sc3ncn(C(C)C(=O)OCc4ccccc4)c(=O)c23)C1` (centres unmarked) [KKL-0740], with 7%; and `Cc1ccc(C(=O)Oc2ccc(Cl)c3cccnc23)cc1[N+](=O)[O-]` [KKL-1383], with 0%.
The result for `CCCCCn1c(NCc2ccc(N(C)C)cc2)nc2ccccc21` [KKL-0911] reads 0%; that for `C=CCOC(=O)C(C#N)c1nc2ccccc2nc1N1CCN(Cc2ccc3c(c2)OCO3)CC1` (centres unmarked) [KKL-0877], 0%; that for `COc1ccc(-c2nnc(SCC(=O)OC3CCCCC3)o2)cc1OC` [KKL-1653], 0%.
In the case of `O=C(CN1C(=O)N2CCN=C2c2cnn(-c3ccccc3)c21)N1CCc2ccccc21` [KKL-0709], the “% activation” value is reported as 0%.
The result for `CSc1nc2nc3c(c(O)n2n1)CCCC3` [KKL-1033] reads 0%.
The result for `CCOC(=O)CSc1nnc(-c2ccc(OC)cc2OC)o1` [KKL-1666] reads 0%.
The result for `Cc1nn(Cc2ccccc2Cl)c2sc(C(=O)NCc3ccc4c(c3)OCO4)cc12` [KKL-0805] reads 0%; that for `O=c1oc2ccc3ccccc3c2cc1-c1nc2ccccc2o1` [KKL-1047], 2%.
As to `COc1ccc(C(C)NC(=O)c2cc(-c3ccccc3OC)[nH]n2)cc1F` (centres unmarked) [KKL-0512], the “% activation” value was found to be 0%.
The result for `CSc1ccc(C(=O)C2CCCN(Cc3cc4ccccc4[nH]3)C2)cc1` (centres unmarked) [KKL-0664] reads 0%; that for `O=C(Nc1ccc(N2CCN(C(=O)c3ccc(Cl)cc3)CC2)cc1)c1ccc([N+](=O)[O-])o1` [KKL-0356], 0%.
For `Cc1ccc2nsnc2c1S(=O)(=O)Nc1cccc2cccnc12` [KKL-1328], the “% activation” value was found to be 3%.
Then `CCCc1cc(NCc2ccccn2)n2nc(C)c(-c3ccccc3)c2n1` [KKL-0892], with 0%.
Take `CC(=O)Oc1cccc2ccc(/C=C/c3cccc(Br)c3)nc12` [KKL-0430]: the “% activation” value is reported as 14%.
Then `COCc1nnc(NC(=O)c2nnn(-c3ccccc3F)c2C)s1` [KKL-0547], with 0%.
Turning to `CCOC(=O)CSC1=C(C#N)C(c2ccccc2[N+](=O)[O-])C(C(C)=O)=C(C)N1` (centres unmarked) [KKL-0587], the “% activation” value is given as 0%.
Then `COc1ccc(-c2cc(=O)c3cc(OCC(=O)OC(C)C)ccc3o2)cc1` [KKL-1864], with 2%; and `CSCCC(=O)N1CCC(Oc2ccc(C(=O)NCCc3ccccc3)cc2)CC1` [KKL-0622], with 4%; and `O=c1oc(-c2ccccc2Br)nc2sc3c(c12)CCCC3` [KKL-0570], with 0%.
